# Some results were stated once for a whole list of compounds, not compound by compound. At least one compound was matched to its structure with a doubt left.
# Target: T1, human PPARalpha (Homo sapiens, UniProt Q07869)
# T1 construct: human PPARalpha receptor (amino acids S167-Y468); expressed in transfected cells; plasmid pcDNA3
# T1 sequence (Q07869 167-468): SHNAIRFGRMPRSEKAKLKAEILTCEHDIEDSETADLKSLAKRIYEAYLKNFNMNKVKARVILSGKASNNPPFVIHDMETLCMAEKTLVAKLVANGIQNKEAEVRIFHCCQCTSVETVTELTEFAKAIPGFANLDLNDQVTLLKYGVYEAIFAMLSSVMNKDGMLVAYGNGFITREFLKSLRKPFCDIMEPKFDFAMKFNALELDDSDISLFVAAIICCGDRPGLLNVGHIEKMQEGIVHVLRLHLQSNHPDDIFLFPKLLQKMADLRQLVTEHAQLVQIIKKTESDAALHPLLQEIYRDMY
# Test: Cellular PPARalpha assay (HEK PPARalpha reporter cell line, luciferase)
# Assay type: cell-based
# Settings: nM to μM; read-out: PPARalpha EC50 values (range over examples)
row,Compound,EC50 [nM]
1,"Cc1nc(C2CCN(CC(F)(F)F)CC2)sc1COc1ccc(-c2noc(=O)[nH]2)c(Cl)c1 [Example 7, 3-(2-Chloro-4-{4-methyl-2-[1-(2,2,2-trifluoro-ethyl)-piperidin-4-yl]-thiazol-5-ylmethoxy}-phenyl)-4H-[1,2,4]oxadiazol-5-one]",≥ 10
2,"CCC(Oc1ccc(-c2noc(=O)[nH]2)c(F)c1)c1sc([C@H]2CC[C@H](C(F)(F)F)CC2)nc1C (stereo partly drawn) [Example 66, 3-(2-Fluoro-4-{1-[4-methyl-2-(trans-1,4-trifluoromethyl-cyclohexyl)-thiazol-5-yl]-propoxy}-phenyl)-4H-1,2,4-oxadiazol-5-one]",≥ 10
3,"Cc1nc([C@H]2CC[C@H](C(F)(F)F)CC2)sc1COc1ccc(-c2noc(=O)[nH]2)c(OCC(F)(F)F)c1 [Example 69, 3-[4-[4-Methyl-2-(trans-1,4-trifluoromethyl-cyclohexyl)-thiazol-5-ylmethoxy]-2-(2,2,2-trifluoro-ethoxy)-phenyl]-4H-1,2,4-oxadiazol-5-one]",≥ 10
4,"CCC(Oc1ccc(-c2noc(=O)[nH]2)c(OC)c1)c1oc([C@H]2CC[C@H](C(F)(F)F)CC2)nc1C (stereo partly drawn) [Example 47, 3-(2-Methoxy-4-{1-[4-methyl-2-(trans-1,4-trifluoromethyl-cyclohexyl)-oxazol-5-yl]-propoxy}-phenyl)-4H-1,2,4-oxadiazol-5-one]",≥ 10
5,"O=c1[nH]c(-c2ccc(OCc3sc([C@H]4CC[C@H](C(F)(F)F)CC4)nc3CN3CCC(C(F)(F)F)CC3)cc2F)no1 [Example 67, 3-{2-Fluoro-4-[2-(trans-1,4-trifluoromethyl-cyclohexyl)-4-(4-trifluoromethyl-piperidin-1-ylmethyl)-thiazol-5-ylmethoxy]-phenyl}-4H-1,2,4-oxadiazol-5-one]",≥ 10
6,"Cc1nc(-c2cnn(C)c2)sc1COc1ccc(-c2nc(=O)o[nH]2)c(Cl)c1 [Example 45, 3-{2-Chloro-4-[4-methyl-2-(1-methyl-1H-pyrazol-4-yl)-thiazol-5-ylmethoxy]-phenyl}-2H-[1,2,4]oxadiazol-5-one]",≥ 10
7,"COCc1nc(-c2ccc(C(F)(F)F)nc2)sc1COc1ccc(-c2noc(=O)[nH]2)c(Cl)c1 [Example 14, 3-{2-Chloro-4-[4-methoxymethyl-2-(6-trifluoromethyl-pyridin-3-yl)-thiazol-5-ylmethoxy]-phenyl}-4H-[1,2,4]oxadiazol-5-one]",≥ 10
8,"Cc1nc([C@H]2CC[C@H](C(F)(F)F)CC2)sc1C(Cc1ccccn1)Oc1ccc(-c2noc(=O)[nH]2)c(Cl)c1 (some centres unmarked) [Example 29, 3-(2-Chloro-4-{1-[4-methyl-2-(4-trifluoromethyl-cyclohexyl)-thiazol-5-yl]-2-pyridin-2-yl-ethoxy}-phenyl)-4H-[1,2,4]oxadiazol-5-one]",≥ 10
9,"CCC(Oc1cc(OCC(F)(F)F)c(-c2noc(=O)[nH]2)cc1F)c1sc([C@H]2CC[C@H](C(F)(F)F)CC2)nc1CN1CCC(C(F)(F)F)CC1 (stereo partly drawn) [Example 64, 3-(5-Fluoro-2-(2,2,2-trifluoro-ethoxy)-4-{1-[2-(trans-1,4-trifluoromethyl-cyclohexyl)-4-(4-trifluoromethyl-piperidin-1-ylmethyl)-thiazol-5-yl]-propoxy}-phenyl)-4H-1,2,4-oxadiazol-5-one]",≥ 10
10,"Cc1nc(-c2ccc(C(F)(F)F)nc2)sc1C(OCc1ccc(-c2noc(=O)[nH]2)c2cccnc12)C(F)(F)F (centres unmarked) [Example 36, 3-(8-{2,2,2-Trifluoro-1-[4-methyl-2-(6-trifluoromethyl-pyridin-3-yl)-thiazol-5-yl]-ethoxymethyl}-quinolin-5-yl)-4H-[1,2,4]oxadiazol-5-one]",≥ 10
11,"CCC(OCc1ccc(-c2noc(=O)[nH]2)c(C(F)(F)F)c1)c1sc(-c2ccc(C(F)(F)F)nc2)nc1C (centres unmarked) [Example 33, 3-(4-{1-[4-Methyl-2-(6-trifluoromethyl-pyridin-3-yl)-thiazol-5-yl]-propoxymethyl}-2-trifluoromethyl-phenyl)-4H-[1,2,4]oxadiazol-5-one]",≥ 10

# — patent US7709481B2, “Phenyl-1,2,4-oxadiazolone derivatives, processes for their preparation and methods for their use as pharmaceuticals” (Sanofi-Aventis, priority 2005, dated 2010)
